{"source": "the supplement of paper PMC8728848", "test_in_all_cases": "glycan array binding signal (z-score within array); higher = stronger binding", "settings_in_all_cases": "glycan notation: IUPAC condensed, linker removed", "key": {"[1]": {"biological_target": "GlcNAc(b1-3)Gal(b1-4)GlcNAc(b1-3)Gal(b1-4)GlcNAc", "how_it_was_run": "(§1)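 The binding signal is a Z-score computed within each array. Data were drawn from 3228 arrays in the Consortium for Functional Glycomics database, restricted to those with a known protein sequence. Scores were averaged over arrays of the same protein sequence at different concentrations or buffers, and over linkers, and negative values can be taken as non-binding.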"}, "[2]": {"biological_target": "GlcNAc(b1-3)GalNAc", "how_it_was_run": "as §1"}, "[3]": {"biological_target": "GlcNAc(b1-3)Man", "how_it_was_run": "as §1"}, "[4]": {"biological_target": "GlcNAc(b1-3)[GlcNAc(b1-4)][GlcNAc(b1-6)]GlcNAc", "how_it_was_run": "as §1"}, "[5]": {"biological_target": "GlcNAc(b1-3)[GlcNAc(b1-6)]Gal(b1-4)GlcNAc", "how_it_was_run": "as §1"}, "[6]": {"biological_target": "GlcNAc(b1-3)[GlcNAc(b1-6)]GalNAc", "how_it_was_run": "as §1"}, "[7]": {"biological_target": "GlcNAc(b1-4)Gal(b1-4)GlcNAc", "how_it_was_run": "as §1"}, "[8]": {"biological_target": "GlcNAc(b1-4)GlcNAc", "how_it_was_run": "as §1"}, "[9]": {"biological_target": "GlcNAc(b1-4)GlcNAc(b1-4)GlcNAc", "how_it_was_run": "as §1"}, "[10]": {"biological_target": "GlcNAc(b1-4)GlcNAc(b1-4)GlcNAc(b1-4)GlcNAc(b1-4)GlcNAc", "how_it_was_run": "as §1"}, "[11]": {"biological_target": "GlcNAc(b1-4)GlcNAc(b1-4)GlcNAc(b1-4)GlcNAc(b1-4)GlcNAc(b1-4)GlcNAc", "how_it_was_run": "as §1"}, "[12]": {"biological_target": "GlcNAc(b1-4)[GlcNAc(b1-6)]GalNAc", "how_it_was_run": "as §1"}, "[13]": {"biological_target": "GlcNAc(b1-6)Gal(b1-4)GlcNAc", "how_it_was_run": "as §1"}, "[14]": {"biological_target": "GlcNAc(b1-6)GalNAc", "how_it_was_run": "as §1"}, "[15]": {"biological_target": "GlcNAc3Prop(b1-4)GlcNAc", "how_it_was_run": "as §1"}, "[16]": {"biological_target": "GlcNAc6S(b1-3)Gal(b1-4)GlcNAc", "how_it_was_run": "as §1"}, "[17]": {"biological_target": "Kdn(a2-3)Gal(b1-3)GalNAc", "how_it_was_run": "as §1"}, "[18]": {"biological_target": "Kdn(a2-3)Gal(b1-3)GlcNAc", "how_it_was_run": "as §1"}, "[19]": {"biological_target": "Kdn(a2-3)Gal(b1-4)Glc", "how_it_was_run": "as §1"}, "[20]": {"biological_target": "Kdn(a2-3)Gal(b1-4)GlcNAc", "how_it_was_run": "as §1"}, "[21]": {"biological_target": "Kdn(a2-3)Gal(b1-4)[Fuc(a1-3)]GlcNAc", "how_it_was_run": "as §1"}, "[22]": {"biological_target": "Kdn(a2-6)Gal(b1-4)GlcNAc", "how_it_was_run": "as §1"}, "[23]": {"biological_target": "Man(a1-2)Man(a1-2)Man(a1-3)Man", "how_it_was_run": "as §1"}, "[24]": {"biological_target": "Man(a1-2)Man(a1-2)Man(a1-6)[Man(a1-3)]Man", "how_it_was_run": "as §1"}, "[25]": {"biological_target": "Man(a1-2)Man(a1-3)Man", "how_it_was_run": "as §1"}, "[26]": {"biological_target": "Man(a1-2)Man(a1-3)[Man(a1-2)Man(a1-6)]Man", "how_it_was_run": "as §1"}, "[27]": {"biological_target": "Man(a1-2)Man(a1-3)[Man(a1-2)Man(a1-6)]Man(a1-6)[Man(a1-2)Man(a1-2)Man(a1-3)]Man", "how_it_was_run": "as §1"}, "[28]": {"biological_target": "Man(a1-2)Man(a1-3)[Man(a1-2)Man(a1-6)]Man(a1-6)[Man(a1-2)Man(a1-2)Man(a1-3)]Man(b1-4)GlcNAc(b1-4)GlcNAc", "how_it_was_run": "as §1"}, "[29]": {"biological_target": "Man(a1-2)Man(a1-3)[Man(a1-6)]Man(a1-6)[Man(a1-2)Man(a1-3)]Man(b1-4)GlcNAc(b1-4)GlcNAc", "how_it_was_run": "as §1"}, "[30]": {"biological_target": "Man(a1-2)Man(a1-6)[Man(a1-3)]Man(a1-6)[Man(a1-2)Man(a1-2)Man(a1-3)]Man", "how_it_was_run": "as §1"}, "[31]": {"biological_target": "Man(a1-2)Man(a1-6)[Man(a1-3)]Man(a1-6)[Man(a1-2)Man(a1-2)Man(a1-3)]Man(b1-4)GlcNAc(b1-4)GlcNAc", "how_it_was_run": "as §1"}, "[32]": {"biological_target": "Man(a1-3)[Man(a1-6)]Man", "how_it_was_run": "as §1"}, "[33]": {"biological_target": "Man(a1-3)[Man(a1-6)]Man(a1-6)[Man(a1-2)Man(a1-3)]Man(b1-4)GlcNAc(b1-4)GlcNAc", "how_it_was_run": "as §1"}, "[34]": {"biological_target": "Man(a1-3)[Man(a1-6)]Man(a1-6)[Man(a1-3)]Man", "how_it_was_run": "as §1"}, "[35]": {"biological_target": "Man(a1-3)[Man(a1-6)]Man(a1-6)[Man(a1-3)]Man(b1-4)GlcNAc(b1-4)GlcNAc", "how_it_was_run": "as §1"}, "[36]": {"biological_target": "Man(a1-3)[Man(a1-6)]Man(b1-4)GlcNAc(b1-4)GlcNAc", "how_it_was_run": "as §1"}, "[37]": {"biological_target": "Man(a1-6)Man", "how_it_was_run": "as §1"}, "[38]": {"biological_target": "Man(b1-4)GlcNAc", "how_it_was_run": "as §1"}, "[39]": {"biological_target": "Neu5Ac(a2-3)Gal", "how_it_was_run": "as §1"}, "[40]": {"biological_target": "Neu5Ac(a2-3)Gal(b1-3)GalNAc", "how_it_was_run": "as §1"}, "[41]": {"biological_target": "Neu5Ac(a2-3)Gal(b1-3)GalNAc(b1-3)Gal(a1-4)Gal(b1-4)Glc", "how_it_was_run": "as §1"}, "[42]": {"biological_target": "Neu5Ac(a2-3)Gal(b1-3)GalNAc(b1-4)[Neu5Ac(a2-3)]Gal(b1-4)Glc", "how_it_was_run": "as §1"}, "[43]": {"biological_target": "Neu5Ac(a2-3)Gal(b1-3)GalNAc6S", "how_it_was_run": "as §1"}, "[44]": {"biological_target": "Neu5Ac(a2-3)Gal(b1-3)GlcNAc", "how_it_was_run": "as §1"}, "[45]": {"biological_target": "Neu5Ac(a2-3)Gal(b1-3)GlcNAc(b1-2)Man(a1-3)[Neu5Ac(a2-3)Gal(b1-3)GlcNAc(b1-2)Man(a1-6)]Man(b1-4)GlcNAc(b1-4)GlcNAc", "how_it_was_run": "as §1"}}, "note": "The list shows a part of the results.", "data": [{"binder": "Flo10 (Saccharomyces cerevisiae), P36170 (protein) MPVAARYIFLTGLFLLSVANVALGTTEACLPAGEKKNGMTINFYQYSLKDSSTYSNPSYMAYGYADAEKLGSVSGQTKLSIDYSIPCNGASDTCACSDDDATEYSASQVVPVKRGVKLCSDNTTLSSKTEKRENDDCDQGAAYWSSDLFGFYTTPTNVTVEMTGYFLPPKTGTYTFGFATVDDSAILSVGGNVAFECCKQEQPPITSTDFTINGIKPWNADAPTDIKGSTYMYAGYYYPIKIVYSNAVSWGTLPVSVVLPDGTEVNDDFEGYVFSFDDNATQAHCSVPNPAEHARTCVSSATSSWSSSEVCTECTETESTSYVTPYVTSSSWSSSEVCTECTETESTSTSTPYVTSSSSSSSEVCTECTETESTSYVTPYVSSSTAAANYTSSFSSSSEVCTECTETESTSTSTPYVTSSSWSSSEVCTECTETESTSYVTPYVSSSTAAANYTSSFSSSSEVCTECTETESTSTSTPYVTSSSSSSSEVCTECTETESTSYVTPYVSSSTAAANYTSSFSSSSEVCTECTETESTSTSTPYVTSSSWSSSEVCTECTETESTSYVTPYVSSSTAAANYTSSFSSSSEVCTECTETESTSTSTPYATSSTGTATSFTASTSNTMTSLVQTDTTVSFSLSSTVSEHTNAPTSSVESNASTFISSNKGSVKSYVTSSIHSITPMYPSNQTVTSSSVVSTPITSESSESSASVTILPSTITSEFKPSTMKTKVVSISSSPTNLITSYDTTSKDSTVGSSTSSVSLISSISLPSSYSASSEQIFHSSIVSSNGQALTSFSSTKVSSSESSESHRTSPTTSSESGIKSSGVEIESTSTSSFSFHETSTASTSVQISSQFVTPSSPISTVAPRSTGLNSQTESTNSSKETMSSENSASVMPSSSATSPKTGKVTSDETSSGFSRDRTTVYRMTSETPSTNEQTTLITVSSCESNSCSNTVSSAVVSTATTTINGITTEYTTWCPLSATELTTVSKLESEEKTTLITVTSCESGVCSETASPAIVSTATATVNDVVTVYSTWSPQATNKLAVSSDIENSASKASFVSEAAETKSISRNNNFVPTSGTTSIETHTTTTSNASENSDNVSASEAVSSKSVTNPVLISVSQQPRGTPASSMIGSSTASLEMSSYLGIANHLLTNSGISIFIASLLLAIV", "values": [{"measurement": "glycan array binding signal (z-score)", "setting": "[1]", "result": -0.29}, {"measurement": "glycan array binding signal (z-score)", "setting": "[2]", "result": -0.711}, {"measurement": "glycan array binding signal (z-score)", "setting": "[3]", "result": 1.02}, {"measurement": "glycan array binding signal (z-score)", "setting": "[4]", "result": 0.63}, {"measurement": "glycan array binding signal (z-score)", "setting": "[5]", "result": -0.477}, {"measurement": "glycan array binding signal (z-score)", "setting": "[6]", "result": -0.39}, {"measurement": "glycan array binding signal (z-score)", "setting": "[7]", "result": -0.716}, {"measurement": "glycan array binding signal (z-score)", "setting": "[8]", "result": -0.12}, {"measurement": "glycan array binding signal (z-score)", "setting": "[9]", "result": -0.506}, {"measurement": "glycan array binding signal (z-score)", "setting": "[10]", "result": -0.892}, {"measurement": "glycan array binding signal (z-score)", "setting": "[11]", "result": -0.661}, {"measurement": "glycan array binding signal (z-score)", "setting": "[12]", "result": -0.642}, {"measurement": "glycan array binding signal (z-score)", "setting": "[13]", "result": -0.298}, {"measurement": "glycan array binding signal (z-score)", "setting": "[14]", "result": -0.656}, {"measurement": "glycan array binding signal (z-score)", "setting": "[15]", "result": -0.731}, {"measurement": "glycan array binding signal (z-score)", "setting": "[16]", "result": -0.057}, {"measurement": "glycan array binding signal (z-score)", "setting": "[17]", "result": 0.113}, {"measurement": "glycan array binding signal (z-score)", "setting": "[18]", "result": -0.565}, {"measurement": "glycan array binding signal (z-score)", "setting": "[19]", "result": 2.77}, {"measurement": "glycan array binding signal (z-score)", "setting": "[20]", "result": -0.202}, {"measurement": "glycan array binding signal (z-score)", "setting": "[21]", "result": 2.08}, {"measurement": "glycan array binding signal (z-score)", "setting": "[22]", "result": 0.854}, {"measurement": "glycan array binding signal (z-score)", "setting": "[23]", "result": -0.231}, {"measurement": "glycan array binding signal (z-score)", "setting": "[24]", "result": -0.531}, {"measurement": "glycan array binding signal (z-score)", "setting": "[25]", "result": -0.487}, {"measurement": "glycan array binding signal (z-score)", "setting": "[26]", "result": 0.219}, {"measurement": "glycan array binding signal (z-score)", "setting": "[27]", "result": 0.219}, {"measurement": "glycan array binding signal (z-score)", "setting": "[28]", "result": 0.031}, {"measurement": "glycan array binding signal (z-score)", "setting": "[29]", "result": -0.671}, {"measurement": "glycan array binding signal (z-score)", "setting": "[30]", "result": -0.311}, {"measurement": "glycan array binding signal (z-score)", "setting": "[31]", "result": -0.712}, {"measurement": "glycan array binding signal (z-score)", "setting": "[32]", "result": -0.794}, {"measurement": "glycan array binding signal (z-score)", "setting": "[33]", "result": -0.706}, {"measurement": "glycan array binding signal (z-score)", "setting": "[34]", "result": -0.76}, {"measurement": "glycan array binding signal (z-score)", "setting": "[35]", "result": 0.35}, {"measurement": "glycan array binding signal (z-score)", "setting": "[36]", "result": -1.83}, {"measurement": "glycan array binding signal (z-score)", "setting": "[37]", "result": 0.265}, {"measurement": "glycan array binding signal (z-score)", "setting": "[38]", "result": -0.435}, {"measurement": "glycan array binding signal (z-score)", "setting": "[39]", "result": -0.75}, {"measurement": "glycan array binding signal (z-score)", "setting": "[40]", "result": 0.113}, {"measurement": "glycan array binding signal (z-score)", "setting": "[41]", "result": -0.274}, {"measurement": "glycan array binding signal (z-score)", "setting": "[42]", "result": 0.386}, {"measurement": "glycan array binding signal (z-score)", "setting": "[43]", "result": -0.697}, {"measurement": "glycan array binding signal (z-score)", "setting": "[44]", "result": 0.095}, {"measurement": "glycan array binding signal (z-score)", "setting": "[45]", "result": -0.606}]}]}
